# Experimental data from PubChem BioAssay AID334 (DTP/NCI, 2004).
# The list is a part of this screen's results and no random one: it is rich in T/C values a quarter to a half above the control, in often repeated tests (any T/C) and in doses without a T/C. Other doses and runs of a compound stand elsewhere. T/C gives the treated animals as a percentage of the vehicle group. Some doses have a count of surviving animals in place of a T/C: the source files T/C as zero there, which appears to mark a toxic dose or a test without result, not a measured value. Some doses without a T/C left all or most animals alive at the check, yet need not have been tolerated: survival well below the control is almost never listed, so the zero probably covers shortened survival too. Counts of survivors are from the toxicity check (mostly the fifth day) where no day follows; animals may have died later. Schedule codes are those of the source, read here as Q, the interval in days (D) or hours (H), X, the number of doses. Some entries hold several experiments; their values stand side by side, smallest first. For survival time, this PubChem deposit counts one and a half times the control or more as active, and values a quarter to a half above the control carry no call in these data; other NCI protocols may use other cut-offs. Some T/C values are followed by the survivors on the day toxicity was checked, most often the fifth; without a count, all were alive then.
# Test system: CD2F1 mice, intracerebral P388 leukemia, median survival T/C%
# Assay: NCI In Vivo Anticancer Drug Screen. Data for tumor model P388 Leukemia (intracerebral) in CD2F1 (CDF1) mice
# Details: T/C endpoint: median survival time, higher T/C = longer survival
# Procedure: The antitumor activity of compounds was measured in mice bearing transplantable tumors. Survival or tumor size were measured and the results are expressed as the measurement made in the treated group (T) divided by the measurement made in the vehicle treated control group (C). The tumor model used in this assay is P388 Leukemia (intracerebral) in CD2F1 (CDF1) mice
# [1] = dose: 100.0 mg/kg/injection, schedule: Q04DX003 (ip), vehicle: saline
# [2] = dose: 25.0 mg/kg/injection, schedule: Q01DX009 (ip), vehicle: saline
# [3] = dose: 100.0 mg/kg/injection, schedule: Q01DX009 (ip), vehicle: saline
structure (smiles),measurement,setting,value
CN(Cc1cnc2nc(N)nc(N)c2n1)c1ccc(C(=O)N[C@@H](CCC(=O)O)C(=O)O)cc1,survivor count,"dose: 0.75 mg/kg/injection, schedule: Q01DX009 (ip), vehicle: olive oil, sesame oil, peanut oil",6 of 6
same,T/C,"dose: 0.75 mg/kg/injection, schedule: Q01DX009 (ip), vehicle: saline","97, 98, 101, 111, 113, 116, 120 % of control"
same,survivor count,"dose: 1.5 mg/kg/injection, schedule: Q01DX009 (ip), vehicle: olive oil, sesame oil, peanut oil",6 of 6
same,T/C,"dose: 1.5 mg/kg/injection, schedule: Q01DX009 (ip), vehicle: saline","92, 93 [9 of 10 alive], 102, 105, 110, 120, 132 % of control"
same,T/C,"dose: 2.3 mg/kg/injection, schedule: Q01DX009 (ip), vehicle: saline","96, 105, 108, 111, 114, 126 % of control"
same,survivor count,"dose: 3.0 mg/kg/injection, schedule: Q01DX009 (ip), vehicle: olive oil, sesame oil, peanut oil",3 of 6
same,survivor count,"dose: 3.0 mg/kg/injection, schedule: Q01DX009 (ip), vehicle: saline",6 of 6
same,T/C,"dose: 3.4 mg/kg/injection, schedule: Q01DX009 (ip), vehicle: saline","102 [9 of 10 alive], 108, 109 [9 of 10 alive], 111, 120, 122 % of control"
same,survivor count,"dose: 6.1 mg/kg/injection, schedule: Q01DX009 (ip), vehicle: olive oil, sesame oil, peanut oil",3 of 6
same,survivor count,"dose: 6.1 mg/kg/injection, schedule: Q01DX009 (ip), vehicle: saline",6 of 6
same,survivor count,"dose: 12.2 mg/kg/injection, schedule: Q01DX009 (ip), vehicle: olive oil, sesame oil, peanut oil",2 of 6
same,survivor count,"dose: 12.2 mg/kg/injection, schedule: Q01DX009 (ip), vehicle: saline",4 of 6
same,survivor count,"dose: 73.5 mg/kg/injection, schedule: Q04DX003 (ip), vehicle: saline",4 of 6
Nc1nncs1,T/C,"dose: 64.0 mg/kg/injection, schedule: Q01DX005 (ip), vehicle: saline with Tween-80",141 % of control
same,survivor count,"dose: 256.0 mg/kg/injection, schedule: Q01DX005 (ip), vehicle: saline with Tween-80",9 of 10
same,survivor count,"dose: 512.0 mg/kg/injection, schedule: Q01DX005 (ip), vehicle: saline with Tween-80",6 of 10 and 10 of 10
NC(CSC(c1ccccc1)(c1ccccc1)c1ccccc1)C(=O)O (stereo not drawn),survivor count,"dose: 256.0 mg/kg/injection, schedule: Q01DX005 (ip), vehicle: Klucel (hydroxypropylcellulose) (HPC)",10 of 10
COc1ccc2c(c1)CCC(c1ccccc1)=C2c1ccc(OCCN2CCCC2)cc1,survivor count,"dose: 96.0 mg/kg/injection, schedule: Q01DX005 (ip), vehicle: Klucel (hydroxypropylcellulose) (HPC)",10 of 10
CC1(C)N=C(N)N=C(N)N1c1ccc(OCCOc2ccc(S(=O)(=O)F)cc2)c(Cl)c1,T/C,[1],133 % of control
same,T/C,"dose: 200.0 mg/kg/injection, schedule: Q04DX003 (ip), vehicle: saline",138 % of control
CC1(C)N=C(N)N=C(N)N1c1ccc(CNC(=O)Nc2cccc(S(=O)(=O)F)c2)cc1,T/C,[1],133 % of control
CNc1nc(N(C)C)nc(N(C)C)n1,T/C,[2],"104 [5 of 6 alive], 105, 114 % of control"
same,survivor count,[2],5 of 6
same,T/C,"dose: 50.0 mg/kg/injection, schedule: Q01DX009 (ip), vehicle: saline","117, 120, 121, 129 % of control"
same,T/C,[3],122 and 131 % of control
same,survivor count,[3],5 of 6
same,survivor count,"dose: 128.0 mg/kg/injection, schedule: Q01DX009 (ip), vehicle: saline",8 of 10
same,survivor count,"dose: 200.0 mg/kg/injection, schedule: Q01DX009 (ip), vehicle: saline","2 of 6, 3 of 6, 5 of 6, 6 of 6"
